# No constants are given. Whether binding was seen depends on the method and setting. In cells and extracts the contact can be indirect. Some results given as binding are weak or reduced against the parent protein; the word gives no strength.
# By UniProt entry, the sequences of proteins in these tests, tags left out.
# UniProt P14618: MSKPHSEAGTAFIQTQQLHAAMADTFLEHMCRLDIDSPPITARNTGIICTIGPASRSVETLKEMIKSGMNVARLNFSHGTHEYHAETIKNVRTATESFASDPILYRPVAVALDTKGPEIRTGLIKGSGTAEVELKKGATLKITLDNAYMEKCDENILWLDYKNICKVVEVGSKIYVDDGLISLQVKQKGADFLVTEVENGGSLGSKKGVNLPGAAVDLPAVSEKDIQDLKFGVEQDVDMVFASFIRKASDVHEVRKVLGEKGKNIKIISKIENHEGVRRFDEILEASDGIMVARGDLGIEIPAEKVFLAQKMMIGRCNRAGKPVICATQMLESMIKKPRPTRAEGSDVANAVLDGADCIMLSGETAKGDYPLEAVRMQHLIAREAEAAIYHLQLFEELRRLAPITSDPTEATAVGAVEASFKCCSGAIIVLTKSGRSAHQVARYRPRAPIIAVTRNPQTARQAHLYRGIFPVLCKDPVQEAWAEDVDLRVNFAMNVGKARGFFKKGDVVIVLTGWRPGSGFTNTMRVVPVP
# T1: PTP4A1 (human (endogenous in HN6 and SCC25)) (UniProt Q93096)
# T1 sequence: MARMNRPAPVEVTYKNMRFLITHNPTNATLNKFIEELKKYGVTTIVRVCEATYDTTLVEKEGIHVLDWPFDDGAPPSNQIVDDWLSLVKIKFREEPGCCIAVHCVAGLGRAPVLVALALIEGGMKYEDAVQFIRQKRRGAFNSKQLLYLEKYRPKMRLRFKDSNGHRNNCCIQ
# T2: GINS complex subunit 2 (GINS2) (human (endogenous in HN6)) (UniProt Q9Y248)
# T2 sequence: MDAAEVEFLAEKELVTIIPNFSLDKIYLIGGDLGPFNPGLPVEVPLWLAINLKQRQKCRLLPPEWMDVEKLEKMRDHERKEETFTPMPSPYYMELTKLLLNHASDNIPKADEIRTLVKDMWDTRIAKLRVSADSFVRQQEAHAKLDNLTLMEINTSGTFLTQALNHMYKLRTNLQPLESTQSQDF
# Experiments:
# [1] = molecular target: T1, PTP4A1 (human (endogenous in HN6 and SCC25)); assay: co-IP; endogenous proteins in HN6 (and, for PTP4A1 with PKM2, SCC25) cell lysates; lysis in ice-cold Co-IP buffer (TBS pH 7.4, 1% NP-40 or Triton X-100, inhibitors); antibody overnight at 4°C, Protein A/G agarose beads, Western blot; control IgG IP alongside
# [2] = molecular target: T2, GINS complex subunit 2 (GINS2) (human (endogenous in HN6)); assay: as above
Molecule,binding [1],binding [2]
PKM2 (from UniProt P14618 1-531),binds,–
"PTP4A1 (protein, UniProt Q93096 1-173) MARMNRPAPVEVTYKNMRFLITHNPTNATLNKFIEELKKYGVTTIVRVCEATYDTTLVEKEGIHVLDWPFDDGAPPSNQIVDDWLSLVKIKFREEPGCCIAVHCVAGLGRAPVLVALALIEGGMKYEDAVQFIRQKRRGAFNSKQLLYLEKYRPKMRLRFKDSNGHRNNCCIQ",–,binds
"GINS complex subunit 2 (GINS2) (protein, UniProt Q9Y248 1-185) MDAAEVEFLAEKELVTIIPNFSLDKIYLIGGDLGPFNPGLPVEVPLWLAINLKQRQKCRLLPPEWMDVEKLEKMRDHERKEETFTPMPSPYYMELTKLLLNHASDNIPKADEIRTLVKDMWDTRIAKLRVSADSFVRQQEAHAKLDNLTLMEINTSGTFLTQALNHMYKLRTNLQPLESTQSQDF",binds,–

# Source: PMC12658745
